Source: patent US7795305B2, “CDDO-compounds and combination therapies thereof” (Board of Regents, The University of Texas System, priority 2000, dated 2010)
At least one structure is not confirmed: it was looked up by name or label, or the drawing left a doubt.

Columns and labels:
HL-60 cells [1] = details: 15d-PGJ2 at 3 μM, BRL49653 at 5 μM (Tontonoz et al., 1998); cited from earlier work
HL-60 cells [2] = details: 15d-PGJ2 at 3 μM, BRL49653 at 5 μM (Tontonoz et al., 1998); cited from earlier work; remark: listed apart in the source
CML-blast crisis samples = experiment: Apoptosis and differentiation in CML-blast crisis samples in vitro; type: cell-based, human
Source text: Subjects. Samples of bone marrow or peripheral blood were obtained for in vitro studies from patients with newly diagnosed or recurrent AML with high (>70%) blast count and from patients with myeloid transformation of chronic myeloid leukemia (CML). Informed consent was obtained following institutional guidelines. Mononuclear cells were separated by Ficoll-Hypaque (Sigma Chemical Co) density-gradient centrifugation.
CDDO-Me. In primary AML, CDDO-Me induced apoptotic cell death in a dose-dependent fashion as determined by DNA flow cytometry (subG1): at 1 μM CDDO-Me, apoptosis was induced in 5 of 6 AML samples in vitro, and 5 μM induced apoptosis in 6 of 6 samples. More than 90% apoptotic cells were detected in 4/6 samples following exposure to 5 μM of CDDO-Me (FIG. 21A). At lower concentrations, CDDO-Me induced a dose-dependent increase in the percentage of the apoptotic cells in 4/4 samples tested (FIG. 21B). The paired mean difference between the CDDO-Me 0.1 μM and DMSO control is 26.9%±10.8% (CDDO-Me-DMSO, mean±SEM); and the paired mean difference between the CDDO-Me 0.5 μM and DMSO is 43.2%±5.2%. […] Effects of CDDO-Me were also tested on clonogenic AML cells. […] In contrast, 79±5.6% and 63.4±1.1% CFU-GM generated from normal CD34* cells were detected after 0.1 and 0.5 μM of CDDO-Me treatment (n=3).

CN(CCOc1ccc(CC2SC(=O)NC2=O)cc1)c1ccccn1 (stereo not drawn) [BRL49653, rosiglitazone]
monocytic differentiation of HL-60 cells (HL-60 cells [1]): induce monocytic differentiation | killing of HL-60 cells (HL-60 cells [2]): no killing

COC(=O)[C@]12CCC(C)(C)C[C@H]1[C@H]1C(=O)C=C3[C@@]4(C)C=C(C#N)C(=O)C(C)(C)[C@@H]4CC[C@@]3(C)[C@]1(C)CC2 [CDDO-Me]
CML-blast crisis samples in which differentiation was induced (CML-blast crisis samples): I of 4
